PubChem BioAssay AID1259308 – NCATS, 2017
The deposit covers about 59,000 reagents; below is a part drawn at random. In the full data, about 1,510 (2.6%) were called active. 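Calls use total luciferase alone and ignore viability, so some active siRNAs may act by altering cell number.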 The numbers tell different reagents against one gene apart. Not all columns of the deposit are shown. No sequences are given here.

Assay: 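Genes whose loss raises luciferase production in HEK293 cells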 (primary screen)
Cell system: human HEK293 embryonic kidney cells stably expressing firefly luciferase (HEK-CMV-Luc2-Hygro)
Reagents: single siRNA against human genes, 0.8 pmol siRNA per well
Time to read-out: 72 h
Measured: 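Reporter luminescence and viable-cell signal on separate replicate plates, given as percent of non-targeting control and median/MAD z-scores, plus per-cell luciferase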
Scale: total luciferase, z-score: higher = more reporter protein produced
Rule for the call: 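Active when the median/MAD z-score for overall luciferase is greater than 3; a gene was taken forward for validation with new siRNAs if at least two of its three siRNAs passed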
Meaning of the calls: active = raised luciferase; inactive = no rise

| Target gene | siRNA no. | total luciferase, z-score | Call |
| --- | --- | --- | --- |
| IFT122 (intraflagellar transport 122) | 1 | 0.917 | inactive |
| IFT122 (intraflagellar transport 122) | 2 | 0.546 | inactive |
| IFT122 (intraflagellar transport 122) | 3 | 2.63 | inactive |
| ADAMTS17 (ADAM metallopeptidase with thrombospondin type 1 motif 17) | 1 | -0.308 | inactive |
| ADAMTS17 (ADAM metallopeptidase with thrombospondin type 1 motif 17) | 2 | 0.493 | inactive |
| ADAMTS17 (ADAM metallopeptidase with thrombospondin type 1 motif 17) | 3 | -1.22 | inactive |
| RAB20 (RAB20, member RAS oncogene family) | 1 | 0.181 | inactive |
| RAB20 (RAB20, member RAS oncogene family) | 2 | 0.207 | inactive |
| RAB20 (RAB20, member RAS oncogene family) | 3 | -1.9 | inactive |
| DIRAS3 (DIRAS family GTPase 3) | 1 | -0.35 | inactive |
| DIRAS3 (DIRAS family GTPase 3) | 2 | -0.607 | inactive |
| DIRAS3 (DIRAS family GTPase 3) | 3 | 0.0967 | inactive |
| APBB1IP | 1 | -1.56 | inactive |
| APBB1IP | 2 | 0.352 | inactive |
| APBB1IP | 3 | 2.99 | inactive |
| GPATCH8 (G-patch domain containing 8) | 1 | -0.136 | inactive |
| GPATCH8 (G-patch domain containing 8) | 2 | 1.27 | inactive |
| GPATCH8 (G-patch domain containing 8) | 3 | 2.12 | inactive |
| NISCH (nischarin) | 1 | 2.39 | inactive |
| NISCH (nischarin) | 2 | -0.867 | inactive |
| NISCH (nischarin) | 3 | -1.2 | inactive |
| KLRD1 (killer cell lectin like receptor D1) | 1 | -0.0633 | inactive |
| KLRD1 (killer cell lectin like receptor D1) | 2 | 0.0685 | inactive |
| KLRD1 (killer cell lectin like receptor D1) | 3 | 0.756 | inactive |
| PDZK1 (PDZ domain containing 1) | 1 | -0.355 | inactive |
| PDZK1 (PDZ domain containing 1) | 2 | -1.8 | inactive |
| PDZK1 (PDZ domain containing 1) | 3 | 1.09 | inactive |
| SYNPO (synaptopodin) | 1 | 0.719 | inactive |
| SYNPO (synaptopodin) | 2 | 2.02 | inactive |
| SYNPO (synaptopodin) | 3 | 0.0115 | inactive |
| CEACAM8 (CEA cell adhesion molecule 8) | 1 | -0.00739 | inactive |
| CEACAM8 (CEA cell adhesion molecule 8) | 2 | 2.52 | inactive |
| CEACAM8 (CEA cell adhesion molecule 8) | 3 | 0.729 | inactive |
| PAPPA (pappalysin 1) | 1 | 1.71 | inactive |
| PAPPA (pappalysin 1) | 2 | 0.551 | inactive |
| PAPPA (pappalysin 1) | 3 | -0.222 | inactive |
| LOC730668 (dynein heavy chain -like pseudogene) | 1 | 2.14 | inactive |
| LOC730668 (dynein heavy chain -like pseudogene) | 2 | -0.151 | inactive |
| LOC730668 (dynein heavy chain -like pseudogene) | 3 | -1.2 | inactive |

8 successive reagents from above, quoted:
| Target gene | siRNA no. | total luciferase, z-score | Call |
| --- | --- | --- | --- |
| PDZK1 (PDZ domain containing 1) | 2 | -1.8 | inactive |
| PDZK1 (PDZ domain containing 1) | 3 | 1.09 | inactive |
| SYNPO (synaptopodin) | 1 | 0.719 | inactive |
| SYNPO (synaptopodin) | 2 | 2.02 | inactive |
| SYNPO (synaptopodin) | 3 | 0.0115 | inactive |
| CEACAM8 (CEA cell adhesion molecule 8) | 1 | -0.00739 | inactive |
| CEACAM8 (CEA cell adhesion molecule 8) | 2 | 2.52 | inactive |
| CEACAM8 (CEA cell adhesion molecule 8) | 3 | 0.729 | inactive |

More results follow:
| Target gene | siRNA no. | total luciferase, z-score | Call |
| --- | --- | --- | --- |
| ZNF480 (zinc finger protein 480) | 1 | 0.886 | inactive |
| ZNF480 (zinc finger protein 480) | 2 | -0.518 | inactive |
| ZNF480 (zinc finger protein 480) | 3 | -0.284 | inactive |
| PTGFRN (prostaglandin F2 receptor inhibitor) | 1 | -0.269 | inactive |
| PTGFRN (prostaglandin F2 receptor inhibitor) | 2 | 0.556 | inactive |
| PTGFRN (prostaglandin F2 receptor inhibitor) | 3 | 0.612 | inactive |
| RFPL4B (ret finger protein like 4B) | 1 | 0.665 | inactive |
| RFPL4B (ret finger protein like 4B) | 2 | -0.194 | inactive |
| RFPL4B (ret finger protein like 4B) | 3 | -0.303 | inactive |
| TMEM63A (transmembrane protein 63A) | 1 | 0.575 | inactive |
| TMEM63A (transmembrane protein 63A) | 2 | 2.94 | inactive |
| TMEM63A (transmembrane protein 63A) | 3 | -0.379 | inactive |
| CYP2A7 (cytochrome P450 family 2 subfamily A member 7) | 1 | -0.294 | inactive |
| CYP2A7 (cytochrome P450 family 2 subfamily A member 7) | 2 | 0.467 | inactive |
| CYP2A7 (cytochrome P450 family 2 subfamily A member 7) | 3 | -1.96 | inactive |
| PRIM1 (DNA primase subunit 1) | 1 | -0.877 | inactive |
| PRIM1 (DNA primase subunit 1) | 2 | -1.28 | inactive |
| PRIM1 (DNA primase subunit 1) | 3 | -0.466 | inactive |
| NSUN2 (NOP2/Sun RNA methyltransferase 2) | 1 | -0.219 | inactive |
| NSUN2 (NOP2/Sun RNA methyltransferase 2) | 2 | -0.23 | inactive |
| NSUN2 (NOP2/Sun RNA methyltransferase 2) | 3 | 0.337 | inactive |
| GIT1 (GIT ArfGAP 1) | 1 | 4.01 | active |
| GIT1 (GIT ArfGAP 1) | 2 | -0.409 | inactive |
| GIT1 (GIT ArfGAP 1) | 3 | 0.991 | inactive |
| C1QTNF3 (C1q and TNF related 3) | 1 | 1.41 | inactive |
| C1QTNF3 (C1q and TNF related 3) | 2 | -0.085 | inactive |
| C1QTNF3 (C1q and TNF related 3) | 3 | -0.849 | inactive |
| WDR35 (WD repeat domain 35) | 1 | -0.191 | inactive |
| WDR35 (WD repeat domain 35) | 2 | 2.49 | inactive |
| WDR35 (WD repeat domain 35) | 3 | -1.37 | inactive |
| HLA-DOB (major histocompatibility complex, class II, DO beta) | 1 | 0.112 | inactive |
| HLA-DOB (major histocompatibility complex, class II, DO beta) | 2 | 0.427 | inactive |
| HLA-DOB (major histocompatibility complex, class II, DO beta) | 3 | -0.0197 | inactive |
| NGF (nerve growth factor) | 1 | -0.544 | inactive |
| NGF (nerve growth factor) | 2 | 1.91 | inactive |
| NGF (nerve growth factor) | 3 | 1.12 | inactive |
